Screening data

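A 24-hour survival check of S16 rat Schwann cells, judged by the ATP-driven light signal.
Each compound ran as a dilution series from about 0.00016 to 58 µM.
The number is the fitted AC50 potency for cell killing; a lower value means a more potent cytotoxic effect.
Calls follow curve class, fit quality (r2) and response size; inconclusive compounds get activity scores of 1 to 39, and these rows are all inconclusive.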

Values are in µM.
All entries here are filed as inconclusive.
These entries are mostly ones the record files as inconclusive; other results of the assay are not listed here.
A potency from a partial, single-point or poor curve is only a rough figure.
Some entries filed as inconclusive have a full curve.
The first word of each remark tells which way the curve ran; it can be opposite to the aim of the assay.
Activity scores are not listed here.

O=C1Nc2ccc(Cl)cc2C(c2ccccc2Cl)=NC1O (centres unmarked) read Potency 7.208 µM (cytotoxic, partial curve, poor fit).
CN1[C@@H]2CC[C@H]1CC(OC1c3ccccc3CCc3ccccc31)C2 (some centres unmarked) read Potency 9.762 µM (cytotoxic, partial curve, poor fit).
CC(=O)Oc1cccc(C(=O)O)c1OC(C)=O read Potency 2.279 µM (rising, partial curve, poor fit).
CO[C@H]1[C@@H](O)CC(OC2[C@@H](O)CC(OC3[C@@H](O)C[C@H](OC4CC[C@@]5(C)C(CCC6C5CC(O)[C@]5(C)[C@H](C7=CC(=O)OC7)CCC65O)C4)O[C@@H]3C)O[C@@H]2C)O[C@@H]1C (some centres unmarked) read Potency 0.0023 µM (cytotoxic, full curve, poor fit).
CCC1Nc2cc(Cl)c(S(N)(=O)=O)cc2S(=O)(=O)N1 (centres unmarked) read Potency 0.0228 µM (rising, full curve, poor fit).
O=C(O)Cn1c(C(=O)Nc2nc(-c3ccccc3Cl)cs2)cc2ccccc21 read Potency 36.13 µM (cytotoxic, single point).
CCC(=O)O[C@]1(C(=O)CCl)[C@@H](C)CC2C3C[C@H](F)C4=CC(=O)C=CC4(C)[C@@]3(F)C(O)CC21C (some centres unmarked) read Potency 20.31 µM (cytotoxic, partial curve, poor fit).
CC[C@]1(O)CC[C@H]2[C@@H]3CCC4=CCCC[C@@H]4[C@H]3CC[C@@]21C read Potency 32.2 µM (cytotoxic, partial curve).
NC(N)=NS(=O)(=O)c1ccc(N)cc1 read Potency 3.464 µM (cytotoxic, single point).
CN(C)CCN(Cc1cccs1)c1ccccn1 read Potency 40.53 µM (cytotoxic, single point).
COC(=O)C1C2CC3c4[nH]c5cc(OC)ccc5c4CCN3CC2CC(OC)C1OC (centres unmarked) read Potency 0.0091 µM (cytotoxic, full curve, poor fit).
Cc1ccccc1OCC(O)CNCCOc1ccc(C(N)=O)cc1 (centres unmarked) read Potency 0.4548 µM (cytotoxic, full curve, poor fit).
Oc1cc2cc(CCN3CCN(c4nsc5ccccc45)CC3)c(Cl)cc2[nH]1 read Potency 40.53 µM (cytotoxic, single point).
COc1cccc(CCc2ccccc2OCC(CN(C)C)OC(=O)CCC(=O)O)c1 (centres unmarked) read Potency 40.53 µM (cytotoxic, single point).
CC(C)CCC(=O)OC1CCC2C3CCC4=CC(=O)CC[C@]4(C)C3CC[C@]12C (some centres unmarked) read Potency 36.13 µM (cytotoxic, single point).
CC(C)CN(C[C@@H](O)[C@H](Cc1ccccc1)NC(=O)O[C@H]1CCOC1)S(=O)(=O)c1ccc(N)cc1 read Potency 36.13 µM (cytotoxic, single point).
O=C(O)c1ccc2[nH]cc(CCCCN3CC=C(c4ccccc4)CC3)c2c1 read Potency 36.13 µM (cytotoxic, single point).
CN(C)c1ccc(C(=C2C=CC(=[N+](C)C)C=C2)c2ccccc2)cc1 read Potency 14.38 µM (cytotoxic, partial curve).
S=C1SCN(Cc2ccccc2)CN1Cc1ccccc1 read Potency 11.42 µM (cytotoxic, full curve).
CN(C)C(=O)Oc1ccc[n+](C)c1 read Potency 6.424 µM (cytotoxic, partial curve).
CN(C)CC/C=C1\c2ccccc2Sc2ccc(Cl)cc21 read Potency 40.53 µM (cytotoxic, single point).
C=C1C(CCl)(CCl)C2(Cl)C(Cl)C(Cl)C1(Cl)C2(Cl)Cl (centres unmarked) read Potency 36.13 µM (cytotoxic, single point).
CCCSS/C(CCO)=C(/C)N(C=O)Cc1cnc(C)nc1N read Potency 0.9074 µM (cytotoxic, full curve, poor fit).
OCC(O)CO read Potency 0.0361 µM (rising, full curve, poor fit).
CN(CCCN1c2ccccc2CCc2ccccc21)CC(=O)c1ccc(Cl)cc1 read Potency 22.79 µM (cytotoxic, partial curve).
NC(C(=O)O)C(O)c1ccc(O)c(O)c1 (centres unmarked) read Potency 20.31 µM (cytotoxic, partial curve).

For reference, 3 entries once more:

CCC(=O)O[C@]1(C(=O)CCl)[C@@H](C)CC2C3C[C@H](F)C4=CC(=O)C=CC4(C)[C@@]3(F)C(O)CC21C (some centres unmarked) read Potency 20.31 µM (cytotoxic, partial curve, poor fit).
O=C1Nc2ccc(Cl)cc2C(c2ccccc2Cl)=NC1O (centres unmarked) read Potency 7.208 µM (cytotoxic, partial curve, poor fit).
NC(N)=NS(=O)(=O)c1ccc(N)cc1 read Potency 3.464 µM (cytotoxic, single point).

From PubChem BioAssay record AID624031 (NCATS, 2012).